Literature values as cited in article PMC10950897, “VCF1 is a p97/VCP cofactor promoting recognition of ubiquitylated p97-UFD1-NPL4 substrates” (Nature Communications, 2024).

Sequences of proteins named here, by UniProt entry; tags and fusion partners are left off. A change or cut given only in a name is not applied to a line headed by its entry.
UniProt Q969W3: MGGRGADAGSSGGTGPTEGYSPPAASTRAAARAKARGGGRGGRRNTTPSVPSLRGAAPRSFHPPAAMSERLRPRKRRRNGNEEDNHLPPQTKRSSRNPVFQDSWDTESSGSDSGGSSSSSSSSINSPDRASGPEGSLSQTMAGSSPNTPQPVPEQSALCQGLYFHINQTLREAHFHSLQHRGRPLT

Tested on: HeLa cells
Conditions: cited from earlier work

For “VCF1: human FAM104A isoform 1, 186 amino acids (UniProt Q969W3); recombinant Strep-HA-tagged”, which expression level (endogenous VCF1) is on record?
Its expression level is ~ 6000 copies/HeLa cell.

What about the “abundance relative to UFD1-NPL4 and p47” value (less abundant) of the same substance?
Its value is “approximately 100 fold”.

And the “abundance relative to p97” value (less abundant)?
The value was ~ 1000 fold.
